Data: patent US20180153993A1, “COMPOSITIONS AND METHODS FOR TREATMENT AND PREVENTION OF CARDIOVASCULAR DISEASES” (The Chinese University of Hong Kong, priority 2016, published 2018)

Test system: ApoE−/− mice
Experiment: Oral administration of MnCl2 in ApoE-/- mice on Western diet, Oil Red O staining of atherosclerotic plaques
Type: in vivo, mouse
Settings: Western diet 12 weeks
Experimental: ApoE^−/− mice (male, 12 weeks old) were fed a Western diet, and MnCl2 was administered through voluntary water consumption. Water consumption rate was predetermined by monitoring the volume of water remained. MnCl2 was supplemented to drinking water to achieve 5 mg/kg body weight. Mice body weight and water consumption were adjusted weekly to adapt to the change of body weight and water consumption. After feeding on the Western diet for 3 months, the mice were killed and the atherosclerotic plaque formation was determined by Oil Red O staining.
The ApoE^−/− mice were killed by CO2 asphyxiation. Mouse aortas were dissected in cold PBS and cut open to expose the atherosclerotic plaques. After fixation in 4% formaldehyde for 16 h at 4° C., the tissues were first rinsed in water for 10 min and then in 60% isopropanol. The aortas were stained with Oil Red O for 15 min with gentle shaking, and rinsed again in 60% isopropanol and then in water for three rinses. The samples were fixed on the cover slides with the endothelial surface facing upwards. The images were recorded using an HP Scanjet G4050. The plaque areas were determined using National Institutes of Health ImageJ software and calculated by expressing the plaque area relative to the total vascular area.

Structure (SMILES): [Cl][Mn][Cl] [MnCl2]
- lipid profile: without affecting lipid profile
- superoxide dismutase (SOD) activity in liver: without affecting
